From PubChem BioAssay record AID1159506 (NCATS, 2015).

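Luminescence from an EWS-FLI1 target-promoter (NR0B1) reporter, set against a CMV-promoter reporter, two days after silencing single genes in TC32 Ewing sarcoma cells.
Each siRNA was applied at 20 nM.
A z-score of the log NR0B1-over-CMV signal, less the median of siRNAs with the same seed; more negative means a stronger specific loss of the NR0B1 reporter.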

The strongest results of the screen are mostly left out here.
Sequences are the guide (antisense) strand, without overhang.

Sequence,gene,seed-corrected z-score
UAACUAUCAAUGACUGUCC,XPOT,0.3939
UCAACUUUUCGAUCUGUCG,CCDC40,0.06104
UACUAGUACAAGCAUAUCC,DDX3Y,0.3404
AAGCGUACAAUGUAAUUGC,ETFDH,0.6553
UUGUUUGUCAUGCUUCUCU,HLA-DQB2,0.1516
AAAGAAAUCUCUCAGUAUC,USP27X,-0.02914
AUUAGAACUAUUUACUCCA,UBE2V1,-0.33
AUCUUCAUUCUUUAACUGC,ARL13B,0.356
UCAGGAGCAAUGACAGCAG,CCL27,0.01967
AAACUUAGUGAAGCUUUCG,NELFB,-0.6526
AAACUUUCCCUGGUUUUUG,OR2G6,-0.8857
UUCUUGUUAUGAAUGUCUC,MED15,1.521
AUGCUGUUCACGAUGUUCG,SLC38A10,-1.257
UCUUCAAAUUCCGUGAGCC,BRF1,0.5979
UUAGCACAAUCUUUGUAGU,RPL36AP8,-0.02099
AUCUCGUUCAUUUUCAUGU,LINC00960,-0.5825
UAAGUCUGCAAUAGCUUCC,PRDM13,0.06063
UAUCUGACCAUAGGCAGCA,CELF4,0.4829
CACAUCUGAAGCCUGGGUC,RPS2P12,0.8733
AAACCAUACAGAAUUCUCC,NABP2,0.3929
UCUCGUUAUGCCGUUCUCG,CDC42BPB,-0.4492
ACUUGUAUUGGUCCAGUGC,GPR84,0.07156
UACUCGAUGAGAAGGUUGC,TGM2,-1.186
UUGCUAUUCACGGAAAUUC,KLHL7,0.6724
UCCAUAUCAAUCAAGACUG,TUBE1,-0.4615
UAGACUUCGAGGUACAGGU,GPBAR1,-0.8288
UGCUCUUCCACCAUUCUCC,CSPG4,0.9984
UCCUCUUCGUCGUUCUCUG,JSRP1,-0.1266
UCUGCAAACACACCAAAGC,NTHL1,0.2849
AAGGCAAUCGAAGAAGGGC,GLTP,1.595
UUUCAUCGAACUUCACUCC,HSP90B1,-1.59
UUUUCUCAUAUUCCGACUC,COX16,-0.2142
UAAAAAUCUACAACAAAUC,R3HDM4,0.0621
AUCCAAACAUUCUCUCUUC,SPDYE10P,0.1895
AUUCCUACUAUGCAGGUCU,TM4SF19,-0.3927
UUCCUCAUGUCCUCGAUCC,IKBKG,-0.1209
AAAGGUUUACUACCUUCCG,AMY1A,0.3118
AGACCUACGACAAUCACCC,MAGEB6,1.104
UAUUUACUUGUUCUCGUCC,AZI2,1.512
UCUGAUCCUAAGAAAAGUC,DYNLRB2,-0.106
ACGCGUACCAUCUAAGACC,ADAMTSL1,0.5063
UUGGGUAAAAAUUGAAGAU,DPYSL4,-0.02778
UAUGGGUUCAUCCAGGUCU,CBX4,0.4814
UAUGGAAAAGGCAACGGGC,FLJ32154,0.3056
UACAUGACAUAGUCGGUGG,TATDN2,-0.8807
UUCCCACAAAAUCUGAUGC,SLC25A36,-0.4929
ACUGGAUCCAGAUCACGUC,NTMT1,-0.3658
AUUGUGGAUUCUUACAUGC,ZSCAN26,-1.106
UUUCUUUGGAAGACAAUGG,TMSB4Y,-0.352
AGAAGAAUCACGACAAUGU,NIPAL3,1.408
UUUGUUCUGACUCUUCUCC,PSTPIP1,-1.009
UGUAUUCCCACUGAGGCUG,SCN5A,-0.3815
AUUCGUAUAAUUCAUAUCG,CFAP206,0.1559
AAAGAGACGUGGGAAUGGG,DCAF12L1,-0.09131
ACCAAGAACAACAAUGUCU,PSMA7,2.187
UGGUAUUAAAUGAAUUCCG,CCDC14,0.1864
UUACUGUUAACAAGAGUCC,S100B,-0.4863
UCCUCAAAAGACUUGGUGU,HRAS,-0.9898

The last 4 entries again:

- ACCAAGAACAACAAUGUCU against PSMA7 | seed-corrected z-score 2.187
- UGGUAUUAAAUGAAUUCCG against CCDC14 | seed-corrected z-score 0.1864
- UUACUGUUAACAAGAGUCC against S100B | seed-corrected z-score -0.4863
- UCCUCAAAAGACUUGGUGU against HRAS | seed-corrected z-score -0.9898